One test has as its target T1, SIX1 (human) (UniProt Q15475).
T1 sequence: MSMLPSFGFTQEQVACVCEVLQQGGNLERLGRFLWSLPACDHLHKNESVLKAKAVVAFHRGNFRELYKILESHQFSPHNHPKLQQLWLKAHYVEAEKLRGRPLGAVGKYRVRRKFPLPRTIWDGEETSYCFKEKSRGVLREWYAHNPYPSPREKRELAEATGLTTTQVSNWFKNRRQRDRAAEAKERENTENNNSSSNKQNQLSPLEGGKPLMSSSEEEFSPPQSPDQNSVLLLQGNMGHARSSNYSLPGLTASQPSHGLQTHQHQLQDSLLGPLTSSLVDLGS
The test can be described thus: co-IP.

Another test addresses T2, SIX1-Q177R (human) (UniProt Q15475).
T2 sequence: T1 sequence with Q177R
The test can be described thus: co-IP.

Substitutions are numbered along the chain they refer to. Results are given in words; binding and its absence hold for the method and conditions named. Binding seen in cells or lysates may run through a third protein. Some results given as binding are weak or reduced against the parent protein; the word gives no strength. Sequences can lack the tags named with a protein.

B1: MEIS1-3xFLAG (protein, UniProt O00470 1-390)
chain: MAQRYDDLPHYGGMDGVGIPSTMYGDPHAARSMQPVHHLNHGPPLHSHQYPHTAHTNAMAPSMGSSVNDALKRDKDAIYGHPLFPLLALIFEKCELATCTPREPGVAGGDVCSSESFNEDIAVFAKQIRAEKPLFSSNPELDNLMIQAIQVLRFHLLELEKVHELCDNFCHRYISCLKGKMPIDLVIDDREGGSKSDSEDITRSANLTDQPSWNRDHDDTASTRSGGTPGPSSGGHTSHSGDNSSEQGDGLDNSVASPSTGDDDDPDKDKKRHKKRGIFPKVATNIMRAWLFQHLTHPYPSEEQKKQLAQDTGLTILQVNNWFINARRRIVQPMIDQSNRAVSQGTPYNPDGQPMGGFVMDGQQHMGIRAPGPMSGMGMNMGMEGQWHYM
On to B1, for which the binding entry in the test with SIX1 (human) and with SIX1-Q177R (human) was “binds” throughout.
